Assay results from PubChem BioAssay AID1508600 (Functional Genomics Laboratory (NCATS/FGL), 2020).
Screen size: about 53,000 sequences; about 3,700 (7%) were called active.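 How the source made its calls: active means gene knockdowns whose robust z-score for IL-1 alpha signal is at least 2 or at most -2, so actives lie on both sides; inactive means the rest.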 This is one part of the list.

Assay: Components of the Cytosolic LPS Sensing Pathway: Gene Identification via Genome-wide siRNA Screen;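 further: robust z of the log signal after scaling to non-targeting control siRNA wells of the plate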
Conditions: RAW264.7 macrophages, IL-1a HTRF, actives lie on both sides, screened at 100 nM (by protocol), cells primed 5 h with Pam3CSK4 first
Outline: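 Using IL-1a HTRF as read-out, the screen measured release from RAW264.7 cells after 48h siRNA knockdown (100 nM), 5 h Pam3CSK4 priming and 24 h cytosolic LipidA. Values were expressed relative to negative-control wells as robust z-scores.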

Sequence	z-score
GCUAUGCAGUGACCACACUTT against C130046B21Rik	inactive: 1.67
GGGAAAGUGUUCUCACUCATT against Zfp111	inactive: 0.273
GGCAAUGCACUUAUAACUCTT against Olfr118	inactive: 0.389
CGAACUAAGCCAAUCUCUGTT against Pcdha2	inactive: 0.175
GGACUACUCUGCCAGAUGGTT against Fam71f1	inactive: 0.0252
GCUGACCAUGGAGUAUAACTT against Ccdc39	inactive: -0.56
GGCCAACACUCAGAAAAGGTT against Zfp474	inactive: 1.59
GGAGAAGCAGAUUCUUCAATT against Calhm6	inactive: -0.0547
GCCAUCUACUCUUUAAAUATT against Pdha1	inactive: 0.351
GGUCAAAAUUGAAUAUCCATT against Slc52a2	inactive: -0.0461
GAUAAAGGAUACCUCAGUGTT against Scrt1	inactive: -0.721
CCAACAUAUUGUUCGUCGGTT against Slc13a2	inactive: -0.59
GCUACAGAAACCCGGGUAGTT against Jsrp1	inactive: -1.46
CCUCCUUGUGGCAUAAUGATT against Gcc2	inactive: 0.267
GCAUUCCUCAUACUUACUGTT against Olfr671	inactive: 0.574
CCUCAUUUUAGUCGUAGAATT against Syt11	inactive: -0.345
GCCUUCGACAUAGAGUACCTT against Eid2	inactive: -0.129
GGACCCUGCUUUUUAAAAATT against Harbi1	inactive: 0.293
GCCAGCGACCUUUAGUACATT against Cmtm1	active: 2.08
GGUCACUGUAAAAUGAACCTT against Odf2	inactive: 1.48
GGAAACUGAAGGAGGUACGTT against Ush1c	inactive: 0.901
GGCCGACCAGCUGUAUAAGTT against Pdha2	inactive: -0.456

Sequence	z-score
GGAAUGCUACAACUCAAAATT against Ptk2	inactive: -0.861
GGUCAUAGAGCUUUAGAUUTT against Nxpe2	inactive: 1.16
GGAAGAUUUACAGAUUCAATT against Lta4h	inactive: 0.534
GGAACACAUGCUAAGCAGATT against 1110032A03Rik	inactive: 0.318
GCUCCUCGUUCCACACAUCTT against Alox12	inactive: -1
GGUAUACGUCUGAUAAUGATT against Aspm	inactive: -0.747
GGUAAUGAUUUGUUAACAGTT against Abhd17b	inactive: -0.442
CCUCACUGUUUUACACCUUTT against Olfr1152	inactive: 0.679
GGAAGUGGACCUGAGUGACTT against Taf6	inactive: -0.887
GGUCUUUAACAACAUUGGATT against Scyl2	inactive: -0.195
GGCUUCCUGUUUGUUUGGATT against Gstp3	inactive: -0.216
CCUGAUUGACGACAGUAAGTT against Mcrs1	inactive: 0.519
CCCUAGUUUGAAUGUAAUATT against Npm2	inactive: -0.537
CCUGUUUGAGAUAUUUGAATT against Npnt	inactive: -0.856
GCUGAUCGAGUAGCUAUUATT against Cse1l	inactive: -0.719
CCCUUAUCACAUGUGUGGATT against Wdr74	inactive: -0.664
GGCAGAGAAUGGAAGAGAUTT against Ptma	inactive: 0.537
GGAGUUCAAGAGCACAAAUTT against Atp4a	inactive: 1.18
GCUUAAAACUUCACGAGGATT against Ppp1r3c	inactive: -0.262
GGGAGGAAGAUGAUCCGGUTT against Pigyl	inactive: 0.427
GCCUUAAGAGAUGUAUUUCTT against Vmn1r33	inactive: -0.042
GGAGGAAAGUUGUAUUUGATT against Nudt7	inactive: 0.148

Sequence	z-score
GGACUUCUACGUGAUGGAGTT against Pip5k1c	inactive: 1.05
GGCGACAUCAUGCUAAUGATT against Fgfbp1	inactive: 0.635
GGUAUACACAUGAAAACCATT against Ccdc137	inactive: -0.548
GGAUGUGCAAGAGUAUCUCTT against Fbp2	inactive: 0.273
GAGGAGCUAUCAUCUCAGGTT against Lcorl	inactive: 0.656
GGACGUGAAAGCUUUGGUUTT against Nrip3	inactive: 0.0357
GGUAUGCAAGUGGAAUCUGTT against Selenoo	inactive: 0.516
GGUGAGGUAGGUGAUGAGCTT against Tchhl1	inactive: -0.626
GGGUUGAAAGAGCUUGCCATT against Vmn1r198	active: -2.56
GCCUCCAAUAAGAUUAUAUTT against Ceacam10	inactive: -0.301
GGAAUGACAAUUGUAAACUTT against Mphosph6	inactive: -0.873
GGAGAUCCUCAAGGAGCAGTT against Park7	active: 2.02
GGAGAUCACCAAAUUUGAGTT against Eef1d	inactive: -0.183
GCCCAUCCCUUCCUUACGATT against Larp7	inactive: -0.506
GCUGGUUCUGUUUGUUAUUTT against Olfr1014	inactive: 0.316
CGUAUUUAUGUUCUGUUGUTT against Sox8	inactive: 0.814
GCAUCAUACUGACCUGAGATT against Gml2	inactive: -1.25
GGAAGACUGUAGGAUUGAGTT against Cd320	inactive: 1.63
GGAAGCCUUGUGUGCACAUTT against Gng10	inactive: 0.724
GGUAAACAUUGCUACUUUGTT against Mpdz	inactive: 0.935
GGAAGAACAUUGUUACCUGTT against Svep1	inactive: 1.1
GCCGCCACAGAAAAAGUCUTT against Dtx3l	inactive: -1.47

Sequence	z-score
GGAAAGGAACAAAGAAUCATT against Cpb2	inactive: -0.421
GGAUGCUUGGCUGAAUCACTT against Smyd1	inactive: 1.88
GCCAGUUGGUUACUAUGGATT against Tax1bp3	inactive: -0.412
GGAGAAGAAGAAAACGUACTT against Mmp10	inactive: -0.978
GGUGAAUCGUGUUUCUGGATT against Fam193b	inactive: 0.298
CCUGUUGUGCAGAUGGUUUTT against Rab28	inactive: 0.0463
CGCCUUCAUUAUGGUGACGTT against Pigc	inactive: -0.817
GGAAGUCAUCUCCUACUAUTT against Lix1	inactive: 0.545
GGUAAAGAGUAUGACAAUCTT against Vcpip1	inactive: -1.7
GGAAAUUUGCCUAUUGAAATT against Il6	inactive: 0.402
GCGGUAUGAGAAGGUUCCATT against Rap2a	active: 3.48
CCUAAACAUGCUGUCCCUATT against Apoc3	inactive: -0.864
GGAGCUAAUAAACUGACCUTT against Mvb12b	inactive: 1.07
GGUAAUACAUUCCUCUAACTT against Zfyve16	inactive: 0.991
GGUGGUGGUGGUGAUUUUGTT against Mad2l2	inactive: -0.428
CCGCGUCGGGCCACCACUGTT against Tmem158	inactive: -1.67
CGGAGCGUGCUUACCAAAATT against Rps11	inactive: 0.674
GCACCACAUCUGCUAAUCUTT against Fam163a	inactive: -0.713
GGAAAUGAGUAGUAGUAGUTT against Svs4	inactive: -0.995
GGCCGUUGUUGUAAAUAAATT against Polr1c	inactive: 0.811
GGCCUGAAAAGACUGAUAATT against Vmn2r26	inactive: 1.18
GGCCUGUUUAGUCUAUAUATT against Lztfl1	inactive: -0.126

Taken from above for reference:
Sequence	z-score
GCUGGUUCUGUUUGUUAUUTT against Olfr1014	inactive: 0.316
CGUAUUUAUGUUCUGUUGUTT against Sox8	inactive: 0.814
GCAUCAUACUGACCUGAGATT against Gml2	inactive: -1.25
GGAAGACUGUAGGAUUGAGTT against Cd320	inactive: 1.63
GGAAGCCUUGUGUGCACAUTT against Gng10	inactive: 0.724
GGUAAACAUUGCUACUUUGTT against Mpdz	inactive: 0.935
GGAAGAACAUUGUUACCUGTT against Svep1	inactive: 1.1
GCCGCCACAGAAAAAGUCUTT against Dtx3l	inactive: -1.47
GGAAAGGAACAAAGAAUCATT against Cpb2	inactive: -0.421
GGAUGCUUGGCUGAAUCACTT against Smyd1	inactive: 1.88
GCCAGUUGGUUACUAUGGATT against Tax1bp3	inactive: -0.412
GGAGAAGAAGAAAACGUACTT against Mmp10	inactive: -0.978
GGUGAAUCGUGUUUCUGGATT against Fam193b	inactive: 0.298
CCUGUUGUGCAGAUGGUUUTT against Rab28	inactive: 0.0463
CGCCUUCAUUAUGGUGACGTT against Pigc	inactive: -0.817
GGAAGUCAUCUCCUACUAUTT against Lix1	inactive: 0.545
GGUAAAGAGUAUGACAAUCTT against Vcpip1	inactive: -1.7
GGAAAUUUGCCUAUUGAAATT against Il6	inactive: 0.402
GCGGUAUGAGAAGGUUCCATT against Rap2a	active: 3.48
CCUAAACAUGCUGUCCCUATT against Apoc3	inactive: -0.864
GGAGCUAAUAAACUGACCUTT against Mvb12b	inactive: 1.07
GGUAAUACAUUCCUCUAACTT against Zfyve16	inactive: 0.991
GGUGGUGGUGGUGAUUUUGTT against Mad2l2	inactive: -0.428
CCGCGUCGGGCCACCACUGTT against Tmem158	inactive: -1.67
CGGAGCGUGCUUACCAAAATT against Rps11	inactive: 0.674
GCACCACAUCUGCUAAUCUTT against Fam163a	inactive: -0.713
GGAAAUGAGUAGUAGUAGUTT against Svs4	inactive: -0.995
GGCCGUUGUUGUAAAUAAATT against Polr1c	inactive: 0.811

Following part:

Sequence	z-score
GGACAUGAAGAUGGGAUCUTT against Cdk16	inactive: 0.795
GCACAAGAUUGACAAGAGCTT against Babam1	inactive: -1.24
GGAAAGUAUCCUGACAUUATT against Lig1	inactive: -0.29
GGUAGACACCUUGUUCUUATT against Nap1l3	inactive: 1.03
ACAAGGGAGGUAAAAAGAGTT against Olfr92	inactive: -0.64
GCUGUUUUUACCUAGUUAGTT against Cpsf6	inactive: 0.251
GCUUACAUGACUGCCUUAUTT against Raf1	inactive: -0.137
GGGCAUGUGAAGAUGUGCGTT against Map2k3	inactive: -0.272
GUCCCAAUACUACUUUUUUTT against Vmn1r6	inactive: -0.533
CCGUGGUUAUUUAGGACAATT against Trim60	inactive: 1.77
GCCGAGUGAAAGCAAUUAUTT against Scg3	inactive: 0.181
CGAUAAGGAUUACAGUGAGTT against Epb41l1	inactive: -0.447
GGCUCUCAAUUUUAUUUCUTT against Ncaph2	inactive: 0.894
GGAAUAUGGAGCCUGAAAATT against Nudt15	inactive: 0.521
GCUUGUGAAAAAUUAUGAGTT against Ipo7	inactive: -1.5
CCAGUCUACAACUGUUCCUTT against Ammecr1l	inactive: 1.59
CCCAGUAUCUCAUGUGCCATT against Aqp5	inactive: 0.178
CCGACCAAGCUCUAUGUGATT against Mrgprh	inactive: 0.902
CGAGUGCCAACUUUAGUUUTT against Hrh4	inactive: 1.39
